Test results published in patent EP3225590A1 (Université de Strasbourg, priority 2016, dated 2017).

What was measured:
ANR-L1 = test: Fluorescence titration of ANR-L1 suspension with analyte, 1:1 single-site binding fit; conditions: 10 mM HEPES buffer (pH 7.3), ANR 250 µg/mL; >> = less than 10% change in emission intensity at >50 molar excess of analyte; error less than ±20%
ANR-Y1 = test: Fluorescence titration of ANR-Y1 suspension with analyte, 1:1 single-site binding fit; conditions: 10 mM HEPES buffer (pH 7.3), ANR 250 µg/mL; >> = less than 10% change in emission intensity at >50 molar excess of analyte; error less than ±20%

CC(C)NCC(O)COc1cccc2ccccc12 (centres unmarked) [propranolol]
Kd (ANR-L1): > 1000 µM
Kd (ANR-Y1): > 1000 µM
